Results are given in words; binding and its absence hold for the method and conditions named. Some binding calls cover weakened binding; strength is not graded here. Values belong to the binder of their own block, whether it stands above or below them.
Experiments:
[1] = molecular target: cynomolgus monkey ADAM9 (cynoADAM9) on cells (cynomolgus monkey); assay: FACS, 300-19 cells expressing cynomolgus ADAM9; FACS, 300-19 cells expressing cynoADAM9, 4° C.; compared with chMAB-A
[2] = molecular target: cynomolgus monkey ADAM9 (cynoADAM9) on cells (cynomolgus monkey); assay: FACS and ELISA; FACS and ELISA (Example 3 studies); weak but present binding
[3] = molecular target: human ADAM9 (huADAM9) on cells (human) (UniProt Q13443); assay: IHC, A498 072210 cells, 2.5 µg/mL
[4] = molecular target: cynomolgus monkey ADAM9 (cynoADAM9) on cells (cynomolgus monkey); assay: IHC, Cho-K Cyno #16 cells, 2.5 µg/mL; IHC, Cho-K Cyno #16 cells, 2.5 µg/mL
[5] = molecular target: His-tagged soluble human ADAM9 (shADAM9-His) (human) (UniProt Q13443); assay: ELISA: His-tagged soluble huADAM9 (1 µg/mL) captured by plate-coated anti-His antibody; serial dilutions of antibody 0.03-1 µg/ml; readout RLU
[6] = molecular target: His-tagged soluble human ADAM9 (shADAM9-His) (human) (UniProt Q13443); assay: BIACORE
[7] = molecular target: human ADAM9 (huADAM9) on cells (human) (UniProt Q13443); assay: IHC, Cho-K/hu ADAM9.18 high expression P:1 cells, 2.5 µg/mL
[8] = molecular target: human ADAM9 (huADAM9) on cells (human) (UniProt Q13443); assay: IHC, Cho-K/hu ADAM9.2 medium expression P:1 cells, 2.5 µg/mL
[9] = molecular target: His-tagged soluble human ADAM9 (shADAM9-His) (human) (UniProt Q13443); assay: SPR (BIACORE)
[10] = molecular target: His-tagged soluble human ADAM9 (shADAM9-His) (human) (UniProt Q13443); assay: ELISA, His-tagged soluble huADAM9 (1 µg/mL) captured by anti-His antibody
[11] = molecular target: cynomolgus monkey ADAM9 (cynoADAM9) on cells (cynomolgus monkey); assay: FACS, 300-19 cells expressing cynomolgus ADAM9
[12] = molecular target: cynomolgus monkey ADAM9 (cynoADAM9) on cells (cynomolgus monkey); assay: IHC, Cho-K Cyno #16 cells, 2.5 µg/mL
[13] = molecular target: cynomolgus monkey ADAM9 (cynoADAM9) on cells (cynomolgus monkey); assay: IHC, Cho-K Cyno #2 cells, 2.5 µg/mL

Sequences of proteins named here, by UniProt entry; tags and fusion partners are left off. A change or cut given only in a name is not applied to a line headed by its entry.
UniProt Q13443: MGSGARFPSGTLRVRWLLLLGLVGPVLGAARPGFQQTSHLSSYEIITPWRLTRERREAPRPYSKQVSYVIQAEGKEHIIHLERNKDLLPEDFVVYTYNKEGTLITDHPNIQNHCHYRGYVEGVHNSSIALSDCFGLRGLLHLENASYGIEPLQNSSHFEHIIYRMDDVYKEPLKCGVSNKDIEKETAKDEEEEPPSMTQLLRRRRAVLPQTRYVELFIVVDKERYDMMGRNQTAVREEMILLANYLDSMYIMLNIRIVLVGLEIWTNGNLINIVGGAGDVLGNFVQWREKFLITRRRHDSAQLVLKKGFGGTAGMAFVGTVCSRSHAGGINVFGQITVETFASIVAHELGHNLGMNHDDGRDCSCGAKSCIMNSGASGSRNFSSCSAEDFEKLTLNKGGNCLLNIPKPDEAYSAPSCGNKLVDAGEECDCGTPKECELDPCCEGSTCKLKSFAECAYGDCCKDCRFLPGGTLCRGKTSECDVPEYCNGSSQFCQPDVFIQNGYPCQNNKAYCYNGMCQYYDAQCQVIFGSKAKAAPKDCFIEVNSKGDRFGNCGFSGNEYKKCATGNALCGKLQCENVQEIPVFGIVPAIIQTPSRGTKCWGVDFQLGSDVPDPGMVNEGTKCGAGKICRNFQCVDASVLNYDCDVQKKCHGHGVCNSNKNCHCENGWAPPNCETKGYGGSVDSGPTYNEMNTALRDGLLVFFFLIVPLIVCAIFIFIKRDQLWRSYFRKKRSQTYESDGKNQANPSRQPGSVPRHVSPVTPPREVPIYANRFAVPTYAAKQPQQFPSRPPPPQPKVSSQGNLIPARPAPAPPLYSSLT

B1: hMAB-A (2.2) (antibody, human IgG1, kappa, V domains shown)
VH: EVQLVESGGGLVKPGGSLRLSCAASGFTFSSYWMHWVRQAPGKGLEWVGEIIPIFGHTNYNEKFKSRFTISLDNSKNTLYLQMGSLRAEDTAVYYCARGGYYYYGSRDYFDYWGQGTTVTVSS
VL: DIVMTQSPDSLAVSLGERATISCKASQSVDYSGDSYMNWYQQKPGQPPKLLIYAASDLESGIPARFSGSGSGTDFTLTISSLEPEDFATYYCQQSHEDPFTFGQGTKLEIKR
binding [1]: binds
binding [2]: binds
binding [3]: binds
binding [4]: binds
binding [5]: binds
binding [6]: binds
binding [7]: binds
binding [8]: binds

B6: hMAB-A (2E.2) (antibody, V domains shown)
VH: EVQLVESGGGLVKPGGSLRLSCAASGFTFSSYWMHWVRQAPGKGLEWVGEIIPIFGHTNYNEKFKSRFTISLDNSKNTLYLQMGSLRAEDTAVYYCARGGYYYYDSNAVLDYWGQGTTVTVSS
VL: DIVMTQSPDSLAVSLGERATISCKASQSVDYSGDSYMNWYQQKPGQPPKLLIYAASDLESGIPARFSGSGSGTDFTLTISSLEPEDFATYYCQQSHEDPFTFGQGTKLEIK
binding [5]: binds

B7: hMAB-A (2A.2) (antibody, V domains shown)
VH: EVQLVESGGGLVKPGGSLRLSCAASGFTFSSYWMHWVRQAPGKGLEWVGEIIPIFGHTNYNEKFKSRFTISLDNSKNTLYLQMGSLRAEDTAVYYCARGGYYYYFNSGTLDYWGQGTTVTVSS
VL: DIVMTQSPDSLAVSLGERATISCKASQSVDYSGDSYMNWYQQKPGQPPKLLIYAASDLESGIPARFSGSGSGTDFTLTISSLEPEDFATYYCQQSHEDPFTFGQGTKLEIK
binding [5]: binds

B8: hMAB-A (2D.2) (antibody, V domains shown)
VH: EVQLVESGGGLVKPGGSLRLSCAASGFTFSSYWMHWVRQAPGKGLEWVGEIIPIFGHTNYNEKFKSRFTISLDNSKNTLYLQMGSLRAEDTAVYYCARGGYYYYTGKGVLDYWGQGTTVTVSS
VL: DIVMTQSPDSLAVSLGERATISCKASQSVDYSGDSYMNWYQQKPGQPPKLLIYAASDLESGIPARFSGSGSGTDFTLTISSLEPEDFATYYCQQSHEDPFTFGQGTKLEIK
binding [9]: binds
binding [5]: binds
binding [10]: binds

B9: hMAB-A (2C.2) (antibody, human IgG1, kappa, V domains shown)
VH: EVQLVESGGGLVKPGGSLRLSCAASGFTFSSYWMHWVRQAPGKGLEWVGEIIPIFGHTNYNEKFKSRFTISLDNSKNTLYLQMGSLRAEDTAVYYCARGGYYYYPRFGWLDYWGQGTTVTVSS
VL: DIVMTQSPDSLAVSLGERATISCKASQSVDYSGDSYMNWYQQKPGQPPKLLIYAASDLESGIPARFSGSGSGTDFTLTISSLEPEDFATYYCQQSHEDPFTFGQGTKLEIKR
binding [9]: binds
binding [3]: binds
binding [11]: binds
binding [5]: binds
binding [12]: binds
binding [7]: binds
binding [8]: binds
binding [10]: binds
binding [13]: binds

B10: hMAB-A (1.1) (antibody, V domains shown)
VH: EVQLVESGGGLVKPGGSLRLSCAASGFTFSSYWMHWVRQAPGKGLEWVGEIIPINGHTNYNEKFKSRFTISLDNSKNTLYLQMGSLRAEDTAVYYCARGGYYYYGSRDYFDYWGQGTTVTVSS
VL: DIVMTQSPDSLAVSLGERATISCKASQSVDYDGDSYMNWYQQKPGQPPKLLIYAASDLESGIPARFSGSGSGTDFTLTISSLEPEDFATYYCQQSHEDPFTFGQGTKLEIK
binding [6]: binds

B11: hMAB-A (2B.2) (antibody, V domains shown)
VH: EVQLVESGGGLVKPGGSLRLSCAASGFTFSSYWMHWVRQAPGKGLEWVGEIIPIFGHTNYNEKFKSRFTISLDNSKNTLYLQMGSLRAEDTAVYYCARGGYYYYIGKGVLDYWGQGTTVTVSS
VL: DIVMTQSPDSLAVSLGERATISCKASQSVDYSGDSYMNWYQQKPGQPPKLLIYAASDLESGIPARFSGSGSGTDFTLTISSLEPEDFATYYCQQSHEDPFTFGQGTKLEIK
binding [9]: binds
binding [5]: binds
binding [10]: binds

B13: hMAB-A (2F.2) (antibody, V domains shown)
VH: EVQLVESGGGLVKPGGSLRLSCAASGFTFSSYWMHWVRQAPGKGLEWVGEIIPIFGHTNYNEKFKSRFTISLDNSKNTLYLQMGSLRAEDTAVYYCARGGYYYYFHSGTLDYWGQGTTVTVSS
VL: DIVMTQSPDSLAVSLGERATISCKASQSVDYSGDSYMNWYQQKPGQPPKLLIYAASDLESGIPARFSGSGSGTDFTLTISSLEPEDFATYYCQQSHEDPFTFGQGTKLEIK
binding [5]: binds

Continued, values first:

binding [6]: binds
B2: hMAB-A (3.3) (antibody, V domains shown)
VH: EVQLVESGGGLVKPGGSLRLSCAASGFTFSSYWMHWVRQAPGKGLEWVGEIIPIFGHTNYNERFQGRFTISLDNSKNTLYLQMGSLRAEDTAVYYCARGGYYYYGSRDYFDYWGQGTTVTVSS
VL: DIVMTQSPDSLAVSLGERATISCRASQSVDYSGDSYMNWYQQKPGQPPKLLIYAASDLESGIPARFSGSGSGTDFTLTISSLEPEDFATYYCQQSHEDPFTFGQGTKLEIK

binding [6]: binds
B3: hMAB-A (4.4) (antibody, V domains shown)
VH: EVQLVESGGGLVKPGGSLRLSCAASGFTFSSYWIHWVRQAPGKGLEWVGEIIPIFGHTNYNERFQGRFTISLDNSKNTLYLQMGSLRAEDTAVYYCARGGYYYYGSRDYFDYWGQGTTVTVSS
VL: DIVMTQSPDSLAVSLGERATISCRASQSVDYSGDSYLNWYQQKPGQPPKLLIYAASDLESGIPARFSGSGSGTDFTLTISSLEPEDFATYYCQQSYSTPFTFGQGTKLEIK

binding [5]: binds
B4: hMAB-A (2G.2) (antibody, V domains shown)
VH: EVQLVESGGGLVKPGGSLRLSCAASGFTFSSYWMHWVRQAPGKGLEWVGEIIPIFGHTNYNEKFKSRFTISLDNSKNTLYLQMGSLRAEDTAVYYCARGGYYYYFNKAVLDYWGQGTTVTVSS
VL: DIVMTQSPDSLAVSLGERATISCKASQSVDYSGDSYMNWYQQKPGQPPKLLIYAASDLESGIPARFSGSGSGTDFTLTISSLEPEDFATYYCQQSHEDPFTFGQGTKLEIK

binding [5]: binds
B5: hMAB-A (2J.2) (antibody, V domains shown)
VH: EVQLVESGGGLVKPGGSLRLSCAASGFTFSSYWMHWVRQAPGKGLEWVGEIIPIFGHTNYNEKFKSRFTISLDNSKNTLYLQMGSLRAEDTAVYYCARGGYYYYYNSGTLDYWGQGTTVTVSS
VL: DIVMTQSPDSLAVSLGERATISCKASQSVDYSGDSYMNWYQQKPGQPPKLLIYAASDLESGIPARFSGSGSGTDFTLTISSLEPEDFATYYCQQSHEDPFTFGQGTKLEIK

binding [5]: binds
B12: hMAB-A (2H.2) (antibody, V domains shown)
VH: EVQLVESGGGLVKPGGSLRLSCAASGFTFSSYWMHWVRQAPGKGLEWVGEIIPIFGHTNYNEKFKSRFTISLDNSKNTLYLQMGSLRAEDTAVYYCARGGYYYYGGSGVLDYWGQGTTVTVSS
VL: DIVMTQSPDSLAVSLGERATISCKASQSVDYSGDSYMNWYQQKPGQPPKLLIYAASDLESGIPARFSGSGSGTDFTLTISSLEPEDFATYYCQQSHEDPFTFGQGTKLEIK

Source: patent publication US20210388102A1
